The record followed here is PubChem BioAssay AID1347423 (Functional Genomics Laboratory (NCATS/FGL), 2020).

Out of some 52,000 sequences screened, about 210 (0.4%) were called active.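 How the source made its calls: active means gene whose silencing raises cell survival under the drug, median off-target-corrected z-score across its silencing RNAs 2 or more; inactive means the rest.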 The list shows a part of the results.

The experiment can be described thus: Resistance to Poly (ADP-Ribose) Polymerase inhibitor: Gene Identification via Genome-wide siRNA Screen. The note with it: mouse BRCA2 R2336H ES cells, olaparib, CellTiter-Glo viability; active compounds read high. A digest of the protocol: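 Genome-wide siRNA screen (3 siRNAs/gene, 20 nM) in mouse ES cells carrying hypomorphic BRCA2 R2336H; olaparib 500 nM added 48 h post-transfection, CellTiter-Glo viability 72 h later. Normalized to plate-median negative control; MAD z-scores, gene median, seed-adjusted.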
(Cellular ATP, detected with luciferase, serves as a proxy for viable cell number.)
As for “GGGAGCUGAACACAAACACTT against A430107P09Rik”, the z-score is inactive: 2.81.
The value for GGUGAUCCUCAUAUUGGCCTT against Npy2r was inactive: -0.259; that for “GCCUAAGGCGCAUAAAUUCTT against 4921526F01Rik” was inactive: -0.927; that for GCGCAAUAAGAUCUUCAUGTT against Ddx55 was inactive: -0.715.
With “GGUGUUCUUGAAGUUUAUATT against 2610020C11Rik” the figure was inactive: 0.333.
The value for GCCAUAUAAGAUUCUUGUGTT against Pik4cb was inactive: -0.362; that for GGACUUAGAUCGGAUCAGUTT against Mdm1 was inactive: -0.59.
Turning to “GCCUCAUUAUAAAUCACACTT against A830080D01Rik”, the z-score is inactive: -1.16.
As to “CCCUAGAAUGGGAAUGUCATT against C030022K24Rik”, the z-score is inactive: 0.313.
With “GGUAACUGUCCAGAAUCAGTT against 2310020A21Rik” the figure was inactive: 1.64; with GCGUAUAUAAUUGAGGACUTT against Zfhx4, inactive: -0.998; with CCUAUUUUUUCUCCACUGATT against Sntg1, inactive: -0.718.
The value for GGAGUUCCUUCAGCAAUAUTT against Sdad1 was inactive: -1.19; that for GGCCUGUCGAAUGAAAGUGTT against Eif2ak4 was inactive: -0.914.
Consider CGAGUGGCUGAAACUUCCGTT against Pik3c3, for which the z-score is inactive: 1.17.
With GGACCGUUUCAUUUCAGGGTT against Phf1 the figure was inactive: 0.431; with CGGUCUGAUGGAGUGCUAUTT against Plekhm1, inactive: 0.775.
The value for GGUUAUCGUGCGCAUCCGATT against Pcdh8 was inactive: -0.115; that for GGCCAUUUGUUAGGACCUGTT against Hrmt1l6 was inactive: 1.19; that for CGAGUGAGCAUCACUUUUATT against Mal was inactive: -0.977.
On to CCAUUCCAUGUCGAUGUCUTT against Prm2, for which the z-score is inactive: -2.74.
For the sequence GGACUCACCUCAGGAACAGTT against Cd33, the z-score was inactive: -0.698.
With “GGUCCAAAGCAAUUCCAGCTT against E330013P04Rik” the figure was inactive: -0.72; with GGUCCUUCAACGGAAGGGATT against Tagap, inactive: 0.272; with “CGUUGUCAUUCACAAGUGATT against A030012E10”, inactive: -0.689.
The value for CCCUAGACUAAAAAGUAAATT against Paqr5 was inactive: 1.02; that for GCUCAAAGCAUUAACUUGUTT against Pbk was inactive: 0.855; that for GGACUUUGUGGAGAAUGUCTT against Cyp1a2 was inactive: -2.53.
Take “CCAAAAAGAUGCUGUUAAGTT against 6430502M16Rik”: the z-score was inactive: 0.176.
The value for GCCACUAUUGAAGCUUGCCTT against Olfr1209 was inactive: 0.354; that for GCACUUUGGGUUUAAGUACTT against Ndrg4 was inactive: -0.966.
The value for GGUGCUUGAGAGACUGAUATT against Nes was inactive: -0.0969.
With GCUGUCAAGCUAUAUGGCGTT against Llglh2 the figure was inactive: 0.0885; with CCUGAAGACACCAAGUUCATT against Pcp4, inactive: -0.384; with GGUGAUGCUCGAAUUGGGUTT against Drg1, inactive: -0.801.
On to GGUGUUUACAGUUGAGAGUTT against BC006705, for which the z-score was inactive: 0.932.
With GGAAGAAUACAAGUCUAGUTT against Pclo, the z-score is inactive: 0.0688.
With “GGUUAACAAAGGAAUAGCATT against B230354K17Rik” the figure was inactive: 1.17; with GGUUUGACUAUUUCAGUGATT against Klrb1c, inactive: -0.023.
With “CCGUCGUGGGUGAUAUCAUTT against 2310022A10Rik” the figure was inactive: 1.44; with CGCUAUUUGAAAUCUCCAATT against Rgs9, inactive: -2.04.
As to CCCGAACAGAUCUUGUCGATT against Hoxd10, the z-score is inactive: 0.333.
The value for GGUGUUCUGUAUCUUGUUCTT against Ndn was inactive: 0.862; that for CCCAAUAUGCAUAAAACAATT against Azi2 was inactive: 0.388.
The value for “CCCUAUACUGCCCGAAUCUTT against 6030441F14Rik” was inactive: -0.426; that for GGGUGAGCUCACGUUCUUUTT against Trim50 was inactive: -0.739.
The value for GGCUGUCCAUAUCAUCUACTT against Cxcr4 was inactive: 0.741.
For “CCUGACAAGGUUUUAGCCUTT against 5830472M02Rik”, the z-score was inactive: 0.0149.
The value for GCUGGGUAACCGCUAUCAATT against Ubtd1 was inactive: -0.133; that for GGAGAAUGCUAAGGUUACUTT against Pcdhga9 was inactive: -1.02; that for GGAAGGACCACGACUCAUATT against Sult2a2 was inactive: 0.329.
With “GCAACAAAGGUGCCGAAACTT against B330016D10Rik” the figure was inactive: 0.615; with GCUUUGAACGGCGAUAUCATT against Wdtc1, inactive: 2.05.
As for GGGCUCCUGAGCCUCUUAATT against Sprr1a, the z-score is inactive: 1.14.
As to “GGGAUACAGAUGUAUGAGUTT against 1700030E05Rik”, the z-score is inactive: 0.0641.
As to GCAGCUUCAAGCUAAUUGATT against Tram1l1, the z-score is inactive: -0.554.
GGACUAUGAAGAGCUAGAGTT against Luzp2: the z-score was inactive: -2.22.
In the case of GGACUCUUCAGCUUCCAGUTT against Uts2, the z-score is inactive: -0.288.
For the sequence CCUAGCACUGUUAUAAACATT against Oog1, the z-score is inactive: 0.434.
In the case of GGAGCAUUUUCCAGUUGAGTT against Mrps35, the z-score was inactive: -0.687.
Consider “CCAGCAAUGUACCAGUUCATT against 2410015M20Rik”, for which the z-score is inactive: -2.03.
The value for GGAAGAGGAGAAGAGCAUGTT against Lgals6 was inactive: -0.209; that for GGACAAAGACUUCCUUGUUTT against Gstt1 was inactive: -1.03; that for GCAACGACAAACGAAGUGATT against Cdx2 was inactive: 0.628.
With CCAAGAUCACUCCUGAAAGTT against LOC433332 the figure was inactive: 0.0916; with GGCCAAGCACGAUAAAUACTT against Stub1, inactive: 0.184; with GGAUAAGAUCAAUGCCCUCTT against Rplp1, inactive: -2.05.
GCUUUCAUAGCUGGAAACCTT against Olfr173: the z-score is inactive: 0.138.
The value for “CCACAGCUAAAGAAUCUUUTT against 2310008H04Rik” was inactive: -1.69; that for CCAUUCUGAUACUAAGCAATT against Tas2r134 was inactive: -1.39.
The value for GGCUUUGAAGAAGAGCUUUTT against Atp6v0a4 was inactive: -1.22; that for GGCCAGAGUCUGGUUGAAUTT against Entpd2 was inactive: -0.134; that for GGACAGAAAUGUUUUUUGGTT against Robo4 was inactive: 1.74.
With GGCUCAUUCGGACUAUAUGTT against Igsf4a the figure was inactive: 1.82; with “GGACUUCCUGACCAUCAUCTT against 1700008P20Rik”, inactive: -2.22; with CCGCCUUUCUGUGAGAUGCTT against Rbm11, inactive: 0.136.
With CGAAUACAUCAUGUCAAAATT against Chek2, the z-score is inactive: 1.62.
The value for “CGGACUCAUUCAGCAACCUTT against 4922503N01Rik” was inactive: 0.283; that for GCUAACAAAGAGCCUGGCATT against Trim46 was inactive: -1.24; that for GGUGGUUCGCACAGAAAGUTT against BC010801 was inactive: -0.184.
Turning to “CCUUAGGCUGACAUAAUAATT against 1700014P03Rik”, the z-score was inactive: -0.105.
The value for GGCUUCUUCUACUUUCAAGTT against Slc27a5 was inactive: -0.875.
With GCAUCUGUGAAAAGUGAACTT against Agtrap the figure was inactive: -1.21; with CAAUACAUUGAUAGCAAAUTT against V1rh7, inactive: 1.29.
The value for GCUAAUAAAGACGUAGCGUTT against Nup188 was inactive: -0.552; that for “GGCCUCGUACUCCAUAAGUTT against 1200011O22Rik” was inactive: -0.0351.
As to “GCUCCGUGUUGUCCUAAUGTT against E230011A21Rik”, the z-score was inactive: 1.02.
In the case of GGAGAGCUACGACUAUCUCTT against Vps29, the z-score is inactive: 0.369.
With GGACAAUAAAAGGAAAGACTT against Brd7 the figure was inactive: -0.867; with GGAAGCUGAAGAAGACCUGTT against Reg1, inactive: 0.99.
Regarding GAUGGAUCUUUAUAAGCAGTT against Expi, the z-score was inactive: 0.717.
Regarding GGCAAACAUGAAGAGAAGCTT against Hspb8, the z-score is inactive: -0.267.
The value for GGUUGUGACAAUGUGAUCCTT against Coro1a was inactive: -0.404; that for GGCAAUAACAUCCAUAUGUTT against Smyd4 was inactive: 1.24.
With GGCGCAUAAUGGGAGAAGCTT against Alox5ap the figure was inactive: -0.851; with CCUGCGUUGACCAAUCAGATT against Tmem24, inactive: 0.0609.
The value for GCUGAAGUCUCUUCAAUGCTT against Trappc6b was inactive: 0.428; that for “GGAACAACAUGUUCAAGAUTT against 9530014D17Rik” was inactive: 0.0648; that for GGGCCAAGGAAGAACUUCATT against Micl was inactive: 1.38.
Take “GACUUCAGACAAAUAGUGCTT against 2310069N01Rik”: the z-score is inactive: -0.966.
The value for GGGUGUGUUGGAUACCUAUTT against BC054059 was inactive: 0.852; that for GGAAAAACUUGACUUACAATT against Mist1 was inactive: 0.485; that for CGGAUGUGGGCAUUCGUUATT against Fbxl7 was inactive: -0.0332.
